No constants are given. Whether binding was seen depends on the method and setting. Some results given as binding are weak or reduced against the parent protein; the word gives no strength.
How the values were obtained:
[1] = target: T1, cytoplasmic domain of Zmax1 (LRP5), yeast two hybrid bait (Homo sapiens (Human)) (UniProt O75197); assay: yeast two hybrid
T1 sequence: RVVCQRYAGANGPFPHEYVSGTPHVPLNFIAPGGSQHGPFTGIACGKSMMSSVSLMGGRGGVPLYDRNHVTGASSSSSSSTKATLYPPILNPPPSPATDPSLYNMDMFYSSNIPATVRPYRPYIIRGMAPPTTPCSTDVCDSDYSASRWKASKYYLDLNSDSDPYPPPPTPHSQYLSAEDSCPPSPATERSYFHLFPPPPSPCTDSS

[2] = target: T1, cytoplasmic domain of Zmax1 (LRP5), yeast two hybrid bait (Homo sapiens (Human)); assay: yeast two hybrid; bait: cytoplasmic domain of Zmax1 (LRP5); prey cDNA libraries (brain, HeLa, TE85)

binding [1]: binds
binding [2]: binds
B1: PINCH-like protein (Novel) (protein)
chain: STGSEFPLCTKASPCSAARAGGRALGWRLQQQRETRGNPGNPGLGVAATMTGSNMSDALANAVCQRCQARFSPAERIVNSNGELYHEHCFVCAQCFRPFPEGLFYEFEGRKYCEHDFQMLFAPCCGSCGEFIIGRVIKAMNNNWHPGCFRCELCDVELADLGFVKNAGRHLCRPCHNREKAKGLGKYICQRCHLVIDEQPLMFRSDAYHPDHFNCTHCGKELTAEARELKGELYCLPCHDKMGVPICGACRRPIEGRVVNALGKQWHVEHFVCAKCEKPFLGHRHYEKKGLAYCEL

Reference: US20050070699A1
